# From paper PMC7225089, “A long lost key opens an ancient lock: Drosophila Myb causes a synthetic multivulval phenotype in nematodes” (Biology Open, 2020)
# No constants are given. Whether binding was seen depends on the method and setting.
# Target: Drosophila LIN9-LIN52 heterodimeric Myb-binding domain complex (D. melanogaster)
# Assay: condition: Myb fragment ~500 μM in the syringe, LIN9-LIN52 ~25–50 μM; ITC; Myb fragment (~500 μM) in the syringe injected into LIN9-LIN52 heterodimer (~25–50 μM) at 25°C; 20 mM Tris, 150 mM NaCl, 1 mM beta mercaptoethanol, pH 8.0; MicroCal VP-ITC; triplicate; both purified
binder,measurement,value
"VIDPKWARVACGKSRAAMFMEEQAYACLKNL (domain or fragment, UniProt P04197 602-632)",binding,no binding
